Among the data in patent US20170081386A1 (APOGENIX, published 2017) are binding values, retold here.

Chains of the proteins cited; added tags and fusions are not shown. Residues count along the entry.
UniProt Q92956, residues 39-202: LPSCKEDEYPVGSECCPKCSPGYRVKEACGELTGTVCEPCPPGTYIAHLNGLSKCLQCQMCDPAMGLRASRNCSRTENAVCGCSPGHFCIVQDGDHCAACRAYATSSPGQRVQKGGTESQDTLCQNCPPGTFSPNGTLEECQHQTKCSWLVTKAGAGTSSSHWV
UniProt O14763, residues 54-182: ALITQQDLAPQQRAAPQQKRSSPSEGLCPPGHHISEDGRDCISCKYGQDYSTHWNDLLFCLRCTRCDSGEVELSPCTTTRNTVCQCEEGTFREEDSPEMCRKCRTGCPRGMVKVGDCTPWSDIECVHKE

Results are given in words; binding and its absence hold for the method and conditions named. Some entries that bind do so weakly or less than the wild type. For part of these data: Sequences can lack the tags named with a protein.

In experiment [1] the target is HVEM-Fc (R&D Systems) (UniProt Q92956). The experiment can be described thus: Streptactin-ELISA (FIG. 6 legend).
For experiment [2] the target is unchanged. The experiment can be described thus: Streptactin-ELISA, 0-10 microgram/ml LIGHT-ASPD immobilized, 100 ng/ml HVEM-Fc.
Experiment [3] has as its target T1, TRAIL-Receptor 1-Fc (R&D Systems) (UniProt O00220).
T1 sequence (looked up): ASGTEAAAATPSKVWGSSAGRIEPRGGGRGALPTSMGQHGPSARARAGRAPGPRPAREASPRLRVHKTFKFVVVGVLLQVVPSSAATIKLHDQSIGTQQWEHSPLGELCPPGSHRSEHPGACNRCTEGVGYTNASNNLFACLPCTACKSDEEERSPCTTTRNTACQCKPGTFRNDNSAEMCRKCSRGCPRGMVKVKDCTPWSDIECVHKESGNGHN
Kind of experiment: Streptactin-ELISA (FIG. 14A), supernatant immobilized, constant concentration of TRAIL-Receptor 1-Fc. In general terms: ELISA stands for enzyme-linked immunosorbent assay.

Experiment [4] addresses TRAIL-Receptor 2-Fc (R&D Systems) (UniProt O14763). Kind of experiment: Streptactin-ELISA (FIG. 14B), supernatant immobilized, constant concentration of TRAIL-Receptor 2-Fc.
For experiment [5] the target is unchanged. Kind of experiment: Streptactin-ELISA (FIG. 14D), supernatant immobilized, varying concentrations of TRAIL-Receptor 2-Fc.
Experiment [6] concerns the target T1, TRAIL-Receptor 1-Fc (R&D Systems). The experiment can be described thus: Streptactin-ELISA (FIG. 14C), supernatant immobilized, varying concentrations of TRAIL-Receptor 1-Fc.
The target is the same in experiment [7]. The experiment can be described thus: Streptactin-ELISA (FIG. 15A), 1 microgram/ml purified trimeric ligand immobilized, TRAIL-Receptor 1-Fc detection.
For experiment [8], the target named is TRAIL-Receptor 2-Fc (R&D Systems) (UniProt O14763). The experiment can be described thus: Streptactin-ELISA (FIG. 15B), 1 microgram/ml purified trimeric ligand immobilized, TRAIL-Receptor 2-Fc detection.
Experiment [9] concerns the target T2, TACl-Fc (R&D Systems) (UniProt O14836).
T2 sequence (looked up): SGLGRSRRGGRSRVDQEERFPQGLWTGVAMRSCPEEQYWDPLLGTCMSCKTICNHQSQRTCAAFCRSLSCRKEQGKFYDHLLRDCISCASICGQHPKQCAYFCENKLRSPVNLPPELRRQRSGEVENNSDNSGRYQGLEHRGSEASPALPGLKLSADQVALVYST
Kind of experiment: Streptactin-ELISA, APRIL-ASPD supernatant immobilized, varying concentrations of TACl-Fc, anti-human Fc-peroxidase detection.

In experiment [10] the target is T2, TACl-Fc (R&D Systems). The experiment can be described thus: Streptactin-ELISA (FIG. 34 legend).

B1: LIGHT-ASPD (ligand)
chain: EVNPAAHLTGANSSLTGSGGPLLWETQLGLAFLRGLSYHDGALVVTKAGYYYIYSKVQLGGVGCPLGLASTITHGLYKRTPRYPEELELLVSQQSPCGRATSSSRVWWDSSFLGGVVHLEAGEEVVVRVLDERLVRLRDGTRSYFGAFMVGSSGSSGSSGSGLPDVASLRQQVEALQGQVQHLQAAFSQYKKVELFPNGQSVGEKIFKTAGFVKPFTEAQLLCTQAGGQLASPRSAAENAALQQLVVAKNEAAFLSMTDSKTEGKFTYPTGESLVYSNWAPGEPNDDGGSEDCVEIFTNGKWNDRACGEKRLVVCEFGGSPSSSSSSAWSHPQFEK
notes: also called Sp-LIGHT-ASPD; LIGHT fusion protein
On to B1, for which the binding result in experiment [1] and in [2] was “binds” each time.

B2: TRAILR1mut-D-SPD (ligand)
chain: QRVAAHITGTRGRSNTLSSPNSKNEKALGRKINSWESSRSGHSFLSNLHLRNGELVIHEKGFYYIYSQTAFRFSEEIKEVTRNDKQMVQYIYKWTDYPDPILLMKSARNSCWSKDAEYGLYSIYQGGIFELKENDRIFVSVTNEHLIDMDHEASFFGAFLVGSGLPDVASLRQQVEALQGQVQHLQAAFSQYKKVELFPNGQSVGEKIFKTAGFVKPFTEAQLLCTQAGGQLASPRSAAENAALQQLVVAKNEAAFLSMTDSKTEGKFTYPTGESLVYSNWAPGEPNDDGGSEDCVEIFTNGKWNDRACGEKRLVVCEFGGSPSSSSSSAWSHPQFEK
Consider B2, for which the binding entry in experiment [3] and in experiment [4] was “binds” each time.

B3: TRAILR2mut-D-SPD (ligand)
chain: QRVAAHITGTRGRSNTLSSPNSKNEKALGRKINSWESSRSGHSFLSNLHLRNGELVIHEKGFYYIYSQTQFKFREEIKENTKNDKQMVQYIYKYTSYPDPILLMKSARNSCWSKDAEYGLYSIYQGGIFELKENDRIFVSVTNERLLQMDHEASFFGAFLVGSGLPDVASLRQQVEALQGQVQHLQAAFSQYKKVELFPNGQSVGEKIFKTAGFVKPFTEAQLLCTQAGGQLASPRSAAENAALQQLVVAKNEAAFLSMTDSKTEGKFTYPTGESLVYSNWAPGEPNDDGGSEDCVEIFTNGKWNDRACGEKRLVVCEFGGSPSSSSSSAWSHPQFEK
notes: it is assembled from the construct description; also called TRAILR2mut (member of the SPD variants)
For the molecule B3, in experiment [4], the binding result is listed as “binds”.

B4: TRAILR1mut-ASPD (ligand)
chain: QRVAAHITGTRGRSNTLSSPNSKNEKALGRKINSWESSRSGHSFLSNLHLRNGELVIHEKGFYYIYSQTAFRFSEEIKEVTRNDKQMVQYIYKWTDYPDPILLMKSARNSCWSKDAEYGLYSIYQGGIFELKENDRIFVSVTNEHLIDMDHEASFFGAFLVGSSGSSGSSGSGLPDVASLRQQVEALQGQVQHLQAAFSQYKKVELFPNGQSVGEKIFKTAGFVKPFTEAQLLCTQAGGQLASPRSAAENAALQQLVVAKNEAAFLSMTDSKTEGKFTYPTGESLVYSNWAPGEPNDDGGSEDCVEIFTNGKWNDRACGEKRLVVCEFGGSPSSSSSSAWSHPQFEK
For B4, the binding result in experiment [5], in [6], in experiment [7], in [3] and in experiment [4] was “binds” each time.

B5: TRAILR2mut-ASPD (ligand)
chain: QRVAAHITGTRGRSNTLSSPNSKNEKALGRKINSWESSRSGHSFLSNLHLRNGELVIHEKGFYYIYSQTQFKFREEIKENTKNDKQMVQYIYKYTSYPDPILLMKSARNSCWSKDAEYGLYSIYQGGIFELKENDRIFVSVTNERLLQMDHEASFFGAFLVGSSGSSGSSGSGLPDVASLRQQVEALQGQVQHLQAAFSQYKKVELFPNGQSVGEKIFKTAGFVKPFTEAQLLCTQAGGQLASPRSAAENAALQQLVVAKNEAAFLSMTDSKTEGKFTYPTGESLVYSNWAPGEPNDDGGSEDCVEIFTNGKWNDRACGEKRLVVCEFGGSPSSSSSSAWSHPQFEK
notes: TRAIL-Receptor 2 selective mutein; homotrimer by SEC; also called Sp-TRAILR2mut-ASPD
Consider B5, for which the binding entry in experiment [5], in experiment [4] and in [8] was “binds” in each case.

B6: TRAILR1mut-A-CCSPD (ligand)
chain: QRVAAHITGTRGRSNTLSSPNSKNEKALGRKINSWESSRSGHSFLSNLHLRNGELVIHEKGFYYIYSQTAFRFSEEIKEVTRNDKQMVQYIYKWTDYPDPILLMKSARNSCWSKDAEYGLYSIYQGGIFELKENDRIFVSVTNEHLIDMDHEASFFGAFLVGSSGSSGSSGSGLPDVASLRQQVEALQGQVQHLQAAFSQYKKVELFPNGPSSSSSSAWSHPQFEK
For B6, the binding result in experiment [3] and in [4] was “binds” throughout.

B7: TRAILR2mut-A-CCSPD (ligand)
chain: QRVAAHITGTRGRSNTLSSPNSKNEKALGRKINSWESSRSGHSFLSNLHLRNGELVIHEKGFYYIYSQTQFKFREEIKENTKNDKQMVQYIYKYTSYPDPILLMKSARNSCWSKDAEYGLYSIYQGGIFELKENDRIFVSVTNERLLQMDHEASFFGAFLVGSSGSSGSSGSGLPDVASLRQQVEALQGQVQHLQAAFSQYKKVELFPNGPSSSSSSAWSHPQFEK
notes: as for B3
With B7, in experiment [4], the binding entry is given as “binds”.

B8: TRAILR2mut-D-CCSPD (ligand)
chain: QRVAAHITGTRGRSNTLSSPNSKNEKALGRKINSWESSRSGHSFLSNLHLRNGELVIHEKGFYYIYSQTQFKFREEIKENTKNDKQMVQYIYKYTSYPDPILLMKSARNSCWSKDAEYGLYSIYQGGIFELKENDRIFVSVTNERLLQMDHEASFFGAFLVGSGLPDVASLRQQVEALQGQVQHLQAAFSQYKKVELFPNGPSSSSSSAWSHPQFEK
notes: as for B3
As to B8, the binding result in experiment [4] is reported as “binds”.

B9: TRAILR1mut-D-CCSPD (ligand)
chain: QRVAAHITGTRGRSNTLSSPNSKNEKALGRKINSWESSRSGHSFLSNLHLRNGELVIHEKGFYYIYSQTAFRFSEEIKEVTRNDKQMVQYIYKWTDYPDPILLMKSARNSCWSKDAEYGLYSIYQGGIFELKENDRIFVSVTNEHLIDMDHEASFFGAFLVGSGLPDVASLRQQVEALQGQVQHLQAAFSQYKKVELFPNGPSSSSSSAWSHPQFEK
Take B9: the binding result in experiment [3] and in experiment [4] was “binds” each time.

B10: APRIL-ASPD (ligand)
chain: KQHSVLHLVPINATSKDDSDVTEVMWQPALRRGRGLQAQGYGVRIQDAGVYLLYSQVLFQDVTFTMGQVVSREGQGRQETLFRCIRSMPSHPDRAYNSCYSAGVFHLHQGDILSVIIPRARAKLNLSPHGTFLGFVKLGSSGSSGSSGSGLPDVASLRQQVEALQGQVQHLQAAFSQYKKVELFPNGQSVGEKIFKTAGFVKPFTEAQLLCTQAGGQLASPRSAAENAALQQLVVAKNEAAFLSMTDSKTEGKFTYPTGESLVYSNWAPGEPNDDGGSEDCVEIFTNGKWNDRACGEKRLVVCEFGGSPSSSSSSAWSHPQFEK
On to B10, for which the binding entry in experiment [9] and in experiment [10] was “binds” in each case.
